Measurements from the supplement of paper PMC11732987, “Enantioselective OTUD7B fragment discovery through chemoproteomics screening and high-throughput optimisation” (Communications Chemistry, 2025).
This is one part of the list. The data scatter; read single values as rough.

Protein sequences, listed by entry. Tags and fused reporters are not part of them. Lines headed by an entry give the natural chain unless they say otherwise; changes in a name come on top.
UniProt O95747, whole entry, looked up: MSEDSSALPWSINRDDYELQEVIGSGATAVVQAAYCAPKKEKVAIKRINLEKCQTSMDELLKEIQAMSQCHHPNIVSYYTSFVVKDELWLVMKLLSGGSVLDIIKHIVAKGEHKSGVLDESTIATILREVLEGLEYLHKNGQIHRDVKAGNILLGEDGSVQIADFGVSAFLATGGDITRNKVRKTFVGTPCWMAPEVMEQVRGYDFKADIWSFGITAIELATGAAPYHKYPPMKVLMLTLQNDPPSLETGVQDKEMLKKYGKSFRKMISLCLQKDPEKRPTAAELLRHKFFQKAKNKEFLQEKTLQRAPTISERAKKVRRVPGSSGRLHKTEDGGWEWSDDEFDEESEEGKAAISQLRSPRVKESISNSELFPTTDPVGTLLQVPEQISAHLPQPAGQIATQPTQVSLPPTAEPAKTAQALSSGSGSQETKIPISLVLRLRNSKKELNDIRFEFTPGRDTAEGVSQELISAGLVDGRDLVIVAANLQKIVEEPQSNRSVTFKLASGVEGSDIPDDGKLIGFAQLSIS
UniProt Q504Q3: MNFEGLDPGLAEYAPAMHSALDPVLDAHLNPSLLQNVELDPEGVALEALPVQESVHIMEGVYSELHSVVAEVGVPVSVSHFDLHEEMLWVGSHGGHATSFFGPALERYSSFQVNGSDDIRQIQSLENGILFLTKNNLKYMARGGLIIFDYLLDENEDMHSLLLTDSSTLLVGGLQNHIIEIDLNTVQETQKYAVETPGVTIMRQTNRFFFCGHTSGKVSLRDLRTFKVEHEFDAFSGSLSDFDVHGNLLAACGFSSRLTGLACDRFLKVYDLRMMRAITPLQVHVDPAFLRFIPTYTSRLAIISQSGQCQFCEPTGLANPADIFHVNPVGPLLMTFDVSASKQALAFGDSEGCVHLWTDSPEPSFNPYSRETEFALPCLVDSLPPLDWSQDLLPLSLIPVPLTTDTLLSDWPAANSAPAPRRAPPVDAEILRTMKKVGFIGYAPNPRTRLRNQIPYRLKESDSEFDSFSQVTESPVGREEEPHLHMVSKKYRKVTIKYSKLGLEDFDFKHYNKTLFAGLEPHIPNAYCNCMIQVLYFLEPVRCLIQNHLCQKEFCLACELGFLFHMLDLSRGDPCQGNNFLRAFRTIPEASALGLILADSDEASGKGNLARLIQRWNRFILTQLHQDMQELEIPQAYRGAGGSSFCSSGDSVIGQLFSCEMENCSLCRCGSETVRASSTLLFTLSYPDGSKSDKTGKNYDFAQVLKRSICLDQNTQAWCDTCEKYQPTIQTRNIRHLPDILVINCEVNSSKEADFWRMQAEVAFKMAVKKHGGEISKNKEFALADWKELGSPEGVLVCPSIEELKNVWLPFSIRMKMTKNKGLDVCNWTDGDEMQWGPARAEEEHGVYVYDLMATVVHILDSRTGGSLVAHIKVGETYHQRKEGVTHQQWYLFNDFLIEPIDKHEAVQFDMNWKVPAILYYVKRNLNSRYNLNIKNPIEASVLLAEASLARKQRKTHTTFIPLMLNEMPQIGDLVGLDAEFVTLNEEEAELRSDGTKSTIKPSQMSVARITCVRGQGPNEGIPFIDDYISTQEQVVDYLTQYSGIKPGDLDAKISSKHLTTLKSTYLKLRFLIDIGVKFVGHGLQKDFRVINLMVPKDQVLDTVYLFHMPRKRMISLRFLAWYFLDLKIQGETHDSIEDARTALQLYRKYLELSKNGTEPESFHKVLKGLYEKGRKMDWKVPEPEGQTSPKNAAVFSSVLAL
UniProt Q9BRP1: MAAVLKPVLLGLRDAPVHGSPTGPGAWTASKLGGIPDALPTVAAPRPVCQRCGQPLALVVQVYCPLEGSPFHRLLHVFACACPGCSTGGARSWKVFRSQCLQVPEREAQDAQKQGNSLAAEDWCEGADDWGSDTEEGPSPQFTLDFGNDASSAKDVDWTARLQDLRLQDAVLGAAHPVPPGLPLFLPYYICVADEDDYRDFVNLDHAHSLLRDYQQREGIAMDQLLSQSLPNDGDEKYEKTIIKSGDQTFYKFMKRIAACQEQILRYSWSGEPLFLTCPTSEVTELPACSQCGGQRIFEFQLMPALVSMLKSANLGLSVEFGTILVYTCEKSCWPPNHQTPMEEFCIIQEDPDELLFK
UniProt P11498: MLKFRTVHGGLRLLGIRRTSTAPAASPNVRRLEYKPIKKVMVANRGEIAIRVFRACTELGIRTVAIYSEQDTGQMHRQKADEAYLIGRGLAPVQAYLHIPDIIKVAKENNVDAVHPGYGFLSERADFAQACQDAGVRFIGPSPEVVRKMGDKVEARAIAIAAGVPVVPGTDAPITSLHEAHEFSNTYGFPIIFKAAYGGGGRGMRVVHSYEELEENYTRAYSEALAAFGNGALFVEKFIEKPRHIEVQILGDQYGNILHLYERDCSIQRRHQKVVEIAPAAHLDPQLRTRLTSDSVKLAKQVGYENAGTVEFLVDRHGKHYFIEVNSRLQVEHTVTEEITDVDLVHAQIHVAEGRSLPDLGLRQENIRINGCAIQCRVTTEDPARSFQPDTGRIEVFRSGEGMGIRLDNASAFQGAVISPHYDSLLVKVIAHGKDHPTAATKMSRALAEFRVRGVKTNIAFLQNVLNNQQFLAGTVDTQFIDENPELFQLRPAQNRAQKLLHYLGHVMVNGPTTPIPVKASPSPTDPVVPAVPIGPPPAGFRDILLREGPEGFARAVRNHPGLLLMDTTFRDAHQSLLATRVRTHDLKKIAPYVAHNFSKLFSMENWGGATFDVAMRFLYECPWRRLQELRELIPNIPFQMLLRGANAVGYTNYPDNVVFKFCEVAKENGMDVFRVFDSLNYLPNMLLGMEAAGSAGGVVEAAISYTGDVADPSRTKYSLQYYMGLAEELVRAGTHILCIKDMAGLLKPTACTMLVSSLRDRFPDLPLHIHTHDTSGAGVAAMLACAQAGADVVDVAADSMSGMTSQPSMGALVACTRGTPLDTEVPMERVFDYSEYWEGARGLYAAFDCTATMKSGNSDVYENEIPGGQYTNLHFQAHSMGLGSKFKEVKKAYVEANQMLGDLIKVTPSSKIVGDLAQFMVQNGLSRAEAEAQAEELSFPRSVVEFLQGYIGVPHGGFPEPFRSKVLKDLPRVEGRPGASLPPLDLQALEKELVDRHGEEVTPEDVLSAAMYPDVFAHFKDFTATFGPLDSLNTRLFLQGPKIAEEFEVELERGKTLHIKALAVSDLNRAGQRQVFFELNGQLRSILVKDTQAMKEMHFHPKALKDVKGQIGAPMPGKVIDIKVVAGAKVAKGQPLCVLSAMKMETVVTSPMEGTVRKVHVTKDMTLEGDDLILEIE
UniProt Q96KB5: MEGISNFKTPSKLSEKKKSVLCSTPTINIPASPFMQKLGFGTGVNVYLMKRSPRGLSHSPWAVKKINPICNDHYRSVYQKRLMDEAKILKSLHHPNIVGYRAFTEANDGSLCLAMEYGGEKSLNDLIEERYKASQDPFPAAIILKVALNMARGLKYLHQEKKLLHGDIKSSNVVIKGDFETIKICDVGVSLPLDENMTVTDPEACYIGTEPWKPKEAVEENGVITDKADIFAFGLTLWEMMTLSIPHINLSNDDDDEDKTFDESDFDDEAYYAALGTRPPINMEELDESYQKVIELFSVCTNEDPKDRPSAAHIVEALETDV
UniProt P49585: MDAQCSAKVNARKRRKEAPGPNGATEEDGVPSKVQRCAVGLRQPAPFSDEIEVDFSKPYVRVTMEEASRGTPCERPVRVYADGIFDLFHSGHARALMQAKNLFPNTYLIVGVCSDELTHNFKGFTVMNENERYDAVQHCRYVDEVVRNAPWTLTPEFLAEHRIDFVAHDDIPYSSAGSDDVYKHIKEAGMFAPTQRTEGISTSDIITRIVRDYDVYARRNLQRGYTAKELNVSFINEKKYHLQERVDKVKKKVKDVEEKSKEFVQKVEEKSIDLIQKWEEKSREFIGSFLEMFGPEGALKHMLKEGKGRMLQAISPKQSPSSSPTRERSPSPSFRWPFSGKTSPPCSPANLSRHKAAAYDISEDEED
UniProt Q29RF7: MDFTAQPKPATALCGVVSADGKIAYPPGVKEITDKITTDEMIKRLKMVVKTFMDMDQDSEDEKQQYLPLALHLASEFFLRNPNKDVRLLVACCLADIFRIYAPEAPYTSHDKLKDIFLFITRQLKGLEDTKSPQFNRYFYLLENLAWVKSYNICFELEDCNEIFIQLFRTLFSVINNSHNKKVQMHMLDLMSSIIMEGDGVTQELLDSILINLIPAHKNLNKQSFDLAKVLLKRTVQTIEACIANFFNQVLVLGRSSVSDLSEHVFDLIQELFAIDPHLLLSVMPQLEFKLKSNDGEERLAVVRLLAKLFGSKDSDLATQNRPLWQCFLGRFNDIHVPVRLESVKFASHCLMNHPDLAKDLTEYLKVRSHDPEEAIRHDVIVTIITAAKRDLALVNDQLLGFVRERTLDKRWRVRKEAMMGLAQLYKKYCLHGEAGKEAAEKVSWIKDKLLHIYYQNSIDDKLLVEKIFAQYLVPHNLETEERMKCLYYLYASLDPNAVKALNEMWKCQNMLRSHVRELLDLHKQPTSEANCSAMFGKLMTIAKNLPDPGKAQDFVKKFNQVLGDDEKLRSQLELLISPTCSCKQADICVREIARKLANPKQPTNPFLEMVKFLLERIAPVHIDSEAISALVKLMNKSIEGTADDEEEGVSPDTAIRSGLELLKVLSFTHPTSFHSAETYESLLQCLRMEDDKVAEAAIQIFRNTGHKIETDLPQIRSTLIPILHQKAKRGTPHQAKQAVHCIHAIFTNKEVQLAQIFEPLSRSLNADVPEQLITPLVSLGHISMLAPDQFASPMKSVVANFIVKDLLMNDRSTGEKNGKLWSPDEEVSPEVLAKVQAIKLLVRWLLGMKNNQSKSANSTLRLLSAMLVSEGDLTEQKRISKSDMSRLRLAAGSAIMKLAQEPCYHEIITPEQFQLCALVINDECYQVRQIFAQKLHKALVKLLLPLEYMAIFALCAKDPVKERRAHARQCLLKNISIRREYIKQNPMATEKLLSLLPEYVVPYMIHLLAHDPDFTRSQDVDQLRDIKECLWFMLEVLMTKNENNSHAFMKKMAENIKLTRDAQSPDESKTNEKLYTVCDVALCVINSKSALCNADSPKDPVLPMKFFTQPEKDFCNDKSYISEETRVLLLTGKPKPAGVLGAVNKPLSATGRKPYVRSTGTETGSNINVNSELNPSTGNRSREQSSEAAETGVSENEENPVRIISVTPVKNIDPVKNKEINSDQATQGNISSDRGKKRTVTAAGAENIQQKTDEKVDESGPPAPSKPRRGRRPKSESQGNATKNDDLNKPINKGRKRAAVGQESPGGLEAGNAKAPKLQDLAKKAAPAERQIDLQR
UniProt Q9NVE7: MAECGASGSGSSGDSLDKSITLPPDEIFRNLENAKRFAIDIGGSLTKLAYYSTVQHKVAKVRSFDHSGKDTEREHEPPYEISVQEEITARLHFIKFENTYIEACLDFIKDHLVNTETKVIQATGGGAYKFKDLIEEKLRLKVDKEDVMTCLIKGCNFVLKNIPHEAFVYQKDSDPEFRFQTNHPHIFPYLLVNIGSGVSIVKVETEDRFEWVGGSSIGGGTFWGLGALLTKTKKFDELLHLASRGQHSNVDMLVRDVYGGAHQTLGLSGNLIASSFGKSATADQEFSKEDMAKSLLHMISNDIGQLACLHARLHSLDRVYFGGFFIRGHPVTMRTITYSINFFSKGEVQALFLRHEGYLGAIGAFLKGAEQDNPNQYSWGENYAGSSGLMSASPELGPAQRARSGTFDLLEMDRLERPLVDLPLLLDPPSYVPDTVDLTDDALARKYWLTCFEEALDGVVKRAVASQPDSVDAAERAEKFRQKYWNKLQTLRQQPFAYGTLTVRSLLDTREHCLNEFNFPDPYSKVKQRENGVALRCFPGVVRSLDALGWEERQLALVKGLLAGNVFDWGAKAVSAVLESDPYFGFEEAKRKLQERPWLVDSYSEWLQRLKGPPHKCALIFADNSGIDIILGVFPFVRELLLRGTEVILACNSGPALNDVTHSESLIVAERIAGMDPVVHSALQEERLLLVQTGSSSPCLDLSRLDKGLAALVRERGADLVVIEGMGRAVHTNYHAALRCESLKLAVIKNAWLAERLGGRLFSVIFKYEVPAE
UniProt Q15102: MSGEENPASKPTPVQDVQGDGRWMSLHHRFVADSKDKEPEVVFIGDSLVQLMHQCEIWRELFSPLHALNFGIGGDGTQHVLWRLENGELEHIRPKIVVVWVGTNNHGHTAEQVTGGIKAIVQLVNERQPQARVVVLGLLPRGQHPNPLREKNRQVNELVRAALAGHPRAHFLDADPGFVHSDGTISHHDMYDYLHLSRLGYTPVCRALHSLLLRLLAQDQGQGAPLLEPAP

compound: ClCC(=O)N[C@@H]1CCCc2ccccc12; test: log2 mean competition ratio of IA-DTB cysteine labelling (DMSO/compound) (log2 ratio); higher = stronger cysteine engagement by compound; details: 50 µM; treatment time: 4 h; cell line lysate: HEK293T
Description: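 IA-DTB competitive cysteine chemoproteomics in HEK293T RIPA lysate. Lysates were treated with compound 29 or 30 at 50 or 200 µM for 4 h, then IA-DTB (500 µM, 1 h), trypsin-digested, NeutrAvidin-enriched and analysed by diaPASEF. Competition ratio = intensity DMSO / intensity compound (n=4 treated, n=64 DMSO); binding: mean log2 CR ≥ 1 and p ≤ 0.05 plus QC filters. Target is the cysteine site.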

| Target | log2 mean competition ratio |
| --- | --- |
| PFKFB3 C178 (UniProt Q16875) | 0.194 |
| OXSR1 C53 (UniProt O95747) | 0.00155 |
| PGM3 C348 | 0.00446 |
| PDLIM7 C341 (UniProt Q9NR12) | -0.127 |
| PAN2 C263 (UniProt Q504Q3) | -0.286 |
| PEX1 C1185 (UniProt O43933) | -0.229 |
| PAN2 C826 (UniProt Q504Q3) | -0.171 |
| PDCD2L C260 (UniProt Q9BRP1) | -0.224 |
| PC C739 (UniProt P11498) | -0.0353 |
| PACSIN3 C231 (UniProt Q9UKS6) | 0.204 |
| PBK C70 (UniProt Q96KB5) | 0.171 |
| PCYT1A C73 (UniProt P49585) | 0.00553 |
| OXCT1 C456 (UniProt P55809) | -0.00424 |
| PAN2 C575 (UniProt Q504Q3) | 0.424 |
| PDK2 C392 (UniProt Q15119) | 0.281 |
| PDE7A C402 | -0.36 |
| PDS5A C1093 (UniProt Q29RF7) | 0.0599 |
| PC C131 (UniProt P11498) | -0.0518 |
| PANK4 C4 (UniProt Q9NVE7) | -0.0357 |
| PAFAH1B3 C205 (UniProt Q15102) | 0.0372 |

same assay, conditions: 200 µM; treatment time: 4 h; cell line lysate: HEK293T

| Target | log2 mean competition ratio |
| --- | --- |
| PFKFB3 C178 (UniProt Q16875) | -0.879 |
| OXSR1 C53 (UniProt O95747) | -0.13 |
| PGM3 C348 | -0.0936 |
| PDLIM7 C341 (UniProt Q9NR12) | -0.0772 |
| PAN2 C263 (UniProt Q504Q3) | -0.0853 |
| PEX1 C1185 (UniProt O43933) | 0.0464 |
| PAN2 C826 (UniProt Q504Q3) | -0.741 |
| PDCD2L C260 (UniProt Q9BRP1) | 0.0391 |
| PC C739 (UniProt P11498) | 0.146 |
| PACSIN3 C231 (UniProt Q9UKS6) | -0.448 |
| PBK C70 (UniProt Q96KB5) | 0.065 |
| PCYT1A C73 (UniProt P49585) | -0.00415 |
| OXCT1 C456 (UniProt P55809) | -0.38 |
| PAN2 C575 (UniProt Q504Q3) | 0.0817 |
| PDK2 C392 (UniProt Q15119) | 0.269 |
| PDE7A C402 | 0.361 |
| PDS5A C1093 (UniProt Q29RF7) | 0.192 |
| PC C131 (UniProt P11498) | -0.197 |
| PANK4 C4 (UniProt Q9NVE7) | -0.02 |
| PAFAH1B3 C205 (UniProt Q15102) | -0.138 |
